Measurements reported in publication PMC12220244.
No constants are given. Whether binding was seen depends on the method and setting. In cells and extracts the contact can be indirect. Tags and fused reporters may be left off the sequences shown.

Chains of the proteins cited; added tags and fusions are not shown.
UniProt P17542: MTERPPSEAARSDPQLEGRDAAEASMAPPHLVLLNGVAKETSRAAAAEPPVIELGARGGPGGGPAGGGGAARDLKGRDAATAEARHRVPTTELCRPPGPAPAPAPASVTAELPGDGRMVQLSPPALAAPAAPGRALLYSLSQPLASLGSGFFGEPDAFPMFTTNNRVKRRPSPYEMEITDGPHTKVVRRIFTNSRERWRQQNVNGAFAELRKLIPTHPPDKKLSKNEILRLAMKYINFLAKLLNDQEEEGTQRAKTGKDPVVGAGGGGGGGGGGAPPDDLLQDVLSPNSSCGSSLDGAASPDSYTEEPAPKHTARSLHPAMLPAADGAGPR

Target: T1, Myc-TRAF6 (1–288 aa) mutant (UniProt Q9Y4K3)
T1 sequence: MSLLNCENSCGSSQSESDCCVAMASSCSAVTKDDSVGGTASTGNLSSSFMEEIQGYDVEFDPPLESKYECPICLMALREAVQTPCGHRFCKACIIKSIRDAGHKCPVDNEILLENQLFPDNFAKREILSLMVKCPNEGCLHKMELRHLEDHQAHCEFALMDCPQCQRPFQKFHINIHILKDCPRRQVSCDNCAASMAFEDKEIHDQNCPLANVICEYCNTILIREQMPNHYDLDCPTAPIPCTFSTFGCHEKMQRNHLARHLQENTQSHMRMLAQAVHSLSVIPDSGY
Assay: co-IP; HEK293T co-transfected with Flag-TAL1 and Myc-His-TRAF6 constructs for 48 h; immunoprecipitation with anti-Flag or anti-Myc beads, immunoblot

binding: no binding
Substance: Flag-tagged full-length (FL) TAL1 (from UniProt P17542 1-331)
